Measurements from PubChem BioAssay AID720534 (National Center for Advancing Translational Sciences (NCATS), 2013).
Screen size: about 1,600 compounds; about 990 (62%) were called active. The set was probably picked from earlier hits. Inconclusive results, whose numbers are uncertain, are shown with a selection of clear calls. Calls follow the shape of the dose curve; as a rule, active = well fitted inhibition curve with a large enough effect; inconclusive = small, poorly fitted or top-dose-only effect; inactive = no such curve, though single readings can be large or run the other way. Potencies beside an inconclusive call are fits to weak or partial responses and may not hold up.

test: qHTS for Inhibitors of TGF-b: Confirmation of Cherry Picks; details: HepG2 CAGA-GFP TGF-b reporter, GFP fluorescence, 18 h, cells stimulated with TGF-beta, 500 pg/mL; activity, negative = inhibition: at 46.1 µM (top of the series); also: nearly all actives have a fitted effect of over 65% in size
Method in brief: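 %Activity came from corrected GFP fluorescence of TGF-beta-stimulated (500 pg/mL final, 18 h) HepG2 CAGA-GFP cells in 1% FBS, normalized to unstimulated wells and stimulated DMSO wells.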
% is scaled to controls: 0 for no effect and ±100 for the full control effect; potency is read from the fitted curve at half-maximal effect.

Row | SMILES | Potency | activity, negative = inhibition
1 | O=C(Nc1ccc([N+](=O)[O-])cc1)Nc1cnccn1 | inconclusive: 18.4 µM [inhibitor, single point] | 
2 | CCO[C@@H]1OC(C(=O)NCc2ccccc2)=C[C@H](c2ccc(C(F)(F)F)cc2)[C@H]1CCCO | inconclusive: 20.6 µM [inhibitor, single point] | 
3 | CCO[C@@H]1OC(C(=O)NCc2ccccc2)=C[C@H](c2ccc(Br)cc2)[C@H]1CCCO | inconclusive: 29.1 µM [inhibitor, single point] | 
4 | CCOc1ccc(CCN2C(=S)N([C@@H](Cc3ccc(O)cc3)CN3CCC[C@@H]3CN3C(=S)NC[C@@H]3CC(C)C)C[C@@H]2CC(C)C)cc1 | inconclusive: 29.1 µM [inhibitor, single point] | 
5 | CC1CCCN(S(=O)(=O)c2ccc(S(=O)(=O)NC(C)c3cccs3)cc2)C1 (stereo not drawn) | inconclusive: 16.4 µM [inhibitor, single point] | 
6 | CCCS(=O)(=O)c1ccc(COC(=O)c2ccc(NC(C)=O)cc2)cc1 | inactive | 
7 | O=C(N/N=C/c1cc(Cl)ccc1O)c1ccccc1Br | inconclusive: 3.26 µM [inhibitor, partial curve, poor fit] | 
8 | CCOC(=O)C1=C[C@@H](C(C)(C)C)N(S(=O)(=O)c2ccc([N+](=O)[O-])cc2)[C@H]1c1ccccc1 | inconclusive: 8.2 µM [inhibitor, partial curve, poor fit] | 
9 | c1ccc(Sc2ncnc3ccccc23)cc1 | active: 10.3 µM | 
10 | NC(=S)NN=Cc1c[nH]c2nccnc12 | inconclusive: 23.1 µM [inhibitor, single point] | 
11 | COc1cccc(CN2CCC2(C)C(=O)Nc2cccc3cccnc23)c1F (stereo not drawn) | inconclusive: 20.6 µM [inhibitor, single point] | 
12 | CC(OC(=O)Cc1ccc(F)cc1)C(=O)NCc1ccc2c(c1)OCO2 (stereo not drawn) | inactive | 
13 | CN(C)CCN(C)C1CN(Cc2ccc(F)cc2)S(=O)(=O)C1 (stereo not drawn) | inactive | 
14 | COc1cccc(CNc2nc(NCc3ccccc3OC)nc3ccsc23)c1 | inconclusive: 29.1 µM [inhibitor, single point] | 
15 | CCSc1ccc([C@@H]2[C@@H]3C(=O)N(CC)C(=O)[C@@H]3[C@]3(C(=O)OC)CCCN23)cc1 | inconclusive: 11.6 µM [inhibitor, partial curve, poor fit] | 
16 | Cc1cccc(N2CCN(CC(=O)NCC3CCCCC3)CC2)c1C | inactive | 
17 | COc1cc(C(=O)Oc2ccccc2/C=N/NC(=O)c2ccc(C)cc2)cc(OC)c1OC |  | inconclusive: -30.2% [inhibitor]
18 | Cc1onc(-c2ccccc2Cl)c1C(=O)Nc1cccc(-c2cn3cccnc3n2)c1 | inconclusive: 10.3 µM [inhibitor, partial curve] | 
19 | CC(C)C[C@H]1CNC(=S)N1CC1CCCN1C[C@H](CC(C)C)N1C[C@H](Cc2ccc(O)cc2)N(CC2CCCCC2)C1=S (stereo partly drawn) | inconclusive: 18.4 µM [inhibitor, single point] | 
20 | COc1cccc(NC(=O)C(NCCC(C)C)c2ccccc2)c1 (stereo not drawn) | inconclusive: 16.4 µM [inhibitor, partial curve, poor fit] | 
21 | Cc1ccc(NC(=O)c2ccc(Nc3c([N+](=O)[O-])cc([N+](=O)[O-])cc3[N+](=O)[O-])cc2)cc1 | active: 8.2 µM | 
22 | COc1ccc2c(c1)sc1nc(-c3ccccc3)cn12 | inconclusive: 11.6 µM [inhibitor, partial curve] | 

Some of the entries so far, as comma-separated lines.
Row,SMILES,Potency,"activity, negative = inhibition"
12,CC(OC(=O)Cc1ccc(F)cc1)C(=O)NCc1ccc2c(c1)OCO2 (stereo not drawn),inactive,
13,CN(C)CCN(C)C1CN(Cc2ccc(F)cc2)S(=O)(=O)C1 (stereo not drawn),inactive,
14,COc1cccc(CNc2nc(NCc3ccccc3OC)nc3ccsc23)c1,"inconclusive: 29.1 µM [inhibitor, single point]",
15,CCSc1ccc([C@@H]2[C@@H]3C(=O)N(CC)C(=O)[C@@H]3[C@]3(C(=O)OC)CCCN23)cc1,"inconclusive: 11.6 µM [inhibitor, partial curve, poor fit]",
16,Cc1cccc(N2CCN(CC(=O)NCC3CCCCC3)CC2)c1C,inactive,
17,COc1cc(C(=O)Oc2ccccc2/C=N/NC(=O)c2ccc(C)cc2)cc(OC)c1OC,,inconclusive: -30.2% [inhibitor]
18,Cc1onc(-c2ccccc2Cl)c1C(=O)Nc1cccc(-c2cn3cccnc3n2)c1,"inconclusive: 10.3 µM [inhibitor, partial curve]",
19,CC(C)C[C@H]1CNC(=S)N1CC1CCCN1C[C@H](CC(C)C)N1C[C@H](Cc2ccc(O)cc2)N(CC2CCCCC2)C1=S (stereo partly drawn),"inconclusive: 18.4 µM [inhibitor, single point]",
20,COc1cccc(NC(=O)C(NCCC(C)C)c2ccccc2)c1 (stereo not drawn),"inconclusive: 16.4 µM [inhibitor, partial curve, poor fit]",
21,Cc1ccc(NC(=O)c2ccc(Nc3c([N+](=O)[O-])cc([N+](=O)[O-])cc3[N+](=O)[O-])cc2)cc1,active: 8.2 µM,
22,COc1ccc2c(c1)sc1nc(-c3ccccc3)cn12,"inconclusive: 11.6 µM [inhibitor, partial curve]",

Further entries

Row | SMILES | Potency | activity, negative = inhibition
23 | CC1=C(C(=O)N(C(C)C)C(C)C)CC(CC(=O)NCCc2ccccn2)C(=O)N1Cc1ccc(C(C)(C)C)cc1 (stereo not drawn) | inactive | 
24 | COc1ccc(-c2onc(C)c2-c2ccc3c(c2)OCCO3)c(O)c1 | active: 16.4 µM | 
25 | COc1ccc([C@H]2CC(=O)C=C(c3cccc(Br)c3)C2)cc1OC | inconclusive: 29.1 µM [inhibitor, single point] | 
26 | O=C(CN1CCN(C(=O)C2CCN(C(=O)/C=C/c3ccccc3)CC2)CC1)Nc1ccc(F)cc1 | inactive | 
27 | NC1=C(Br)C(=O)c2ncccc2C1=O | active: 1.16 µM | 
28 | CCOc1ccc(CCN2C(=S)N([C@@H](Cc3ccc(O)cc3)CN3CCC[C@@H]3CN3C(=S)NC[C@@H]3Cc3ccccc3)C[C@@H]2Cc2ccc(O)cc2)cc1 | active: 6.51 µM | 
29 | COc1ccc(C(NC(=O)C(C)C)c2ccc3cccnc3c2O)cc1 (stereo not drawn) | inactive | 
30 | O=C1CS(=O)(=O)N(Cc2ccccc2F)c2ccc(Br)cc21 | inconclusive: 16.4 µM [inhibitor, single point] | 
31 | O=c1[nH]c2ccccc2cc1-c1nnn(-c2ccc(Cl)c(Cl)c2)n1 | inactive | 
32 | COc1cc(C(=O)c2cocc2C(=O)c2ccc3c(c2)OCO3)cc(OC)c1OC | inactive | 
33 | COc1ccccc1-c1cc(NC=O)c2ncc(-c3cccc(C(=O)N(C)C)c3)n2c1 | active: 5.17 µM | 
34 | Cc1cc(C)nc(-n2nc(C)cc2NC(=O)CN2CCC(C)CC2)n1 | inconclusive: 23.1 µM [inhibitor, partial curve, poor fit] | 
35 | COc1ccc(CNC(=S)N/N=C/c2ccc(O)c(OC)c2)cc1 | inactive | 
36 | CC(=O)Oc1ccccc1C(=O)C=Cc1cccc([N+](=O)[O-])c1 | active: 10.3 µM | 
37 | O=C(CSc1nnc(COc2cccc3cccnc23)o1)N1CCc2ccccc21 | inconclusive: 4.61 µM [inhibitor, partial curve] | 
38 | CC1C(=O)N(Cc2cn(CCC3OCCCO3)nn2)CCS(=O)(=O)N1Cc1ccc(-c2ccc(Cl)cc2)cc1 (stereo not drawn) | inconclusive: 29.1 µM [inhibitor, single point] | 
39 | C=C(C(=O)c1ccccc1)C(C)CC(=O)c1ccccc1 (stereo not drawn) | active: 4.61 µM | 
40 | COc1cc(/C=N/n2c(SC)nnc(C(C)(C)C)c2=O)ccc1O | inconclusive: 7.31 µM [inhibitor, partial curve] | 
41 | COC(=O)COc1cccc2c(=O)n(CC(=O)NCc3ccccc3)ccc12 | inactive | 
42 | COC(=O)c1ccc(C)c(NS(=O)(=O)c2ccc(OC)cc2)c1 | inconclusive: 20.6 µM [inhibitor, single point] | 
43 | O=[N+]([O-])c1cccc2nc3ccccc3c(NCCCn3ccnc3[N+](=O)[O-])c12 | active: 0.103 µM | 
